Data from PMC5550846.
Results are given in words; binding and its absence hold for the method and conditions named. In cells and extracts the contact can be indirect. Binding calls can cover weak binding; strength is not graded here. Where a sequence is shown, tags or fusion partners need not be part of it.

Protein sequences, listed by entry. Tags and fused reporters are not part of them. Lines headed by an entry give the natural chain unless they say otherwise; changes in a name come on top.
UniProt P10415: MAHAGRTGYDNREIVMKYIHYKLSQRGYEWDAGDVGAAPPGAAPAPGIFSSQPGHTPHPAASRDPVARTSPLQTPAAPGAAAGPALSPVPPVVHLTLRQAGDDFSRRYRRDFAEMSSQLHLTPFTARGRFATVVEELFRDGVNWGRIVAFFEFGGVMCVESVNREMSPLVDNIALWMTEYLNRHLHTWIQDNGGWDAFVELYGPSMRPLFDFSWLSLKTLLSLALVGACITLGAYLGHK

Biological target: Bcl-2 GST fusion protein (UniProt P10415)
Assay: pull-down; GST-Bcl-2 or GST bound to glutathione-agarose, incubated overnight with lysates of LV-HA-SPK2- or vector-infected HT22 cells; blotted with anti-HA; only the target purified

B1: sphingosine kinase 2 (SPK2), HA-tagged, mouse (enzyme, UniProt Q9JIA7 1-617)
chain: MAPPPLLPVAASTPILHGEFGSYPANGPRFALTLTTQALHIQRLRPKPEARPRDGLVSLDEVSGCGTLQSRSPEDTAAYFCIYTYPRGRRGGRRRATRTFRADGATTYEENRAEAQRWATALTCLLRGVPLSGDQEITPELLPRKPRLLILVNPFGGRGLAWQRCMDHVVPMISEAGLSFNLIQTERQNHARELVQGLSLSEWEGIVTVSGDGLLYEVLNGLLDRPDWEDAVRMPIGVLPCGSGNALAGAVNHHGGFEQVVGVDLLLNCSLLLCRGGSHPLDLLSVTLASGSRCFSFLSVAWGFLSDVDIHSERFRALGSARFTLGAVLGLASLHTYRGRLSYLPATTEPALPIPGHSLPRAKSELVLAPAPAPAATHSPLHRSVSDLPLPLPQPALVSPGSPEPLPDLSLNGGGPELTGDWGGAGDAPLSPDPLLPSSPNALKTAQLSPIAEGPPEMPASSGFLPPTHSAPEASTWGPVDHLLPPLGSPLPQDWVTIEGEFVLMLGILPSHLCADLMAAPHARFDDGVVHLCWVRSGISRAALLRILLAMEHGNHFSLGCPHLGYAAARAFRLEPLTPRGLLTVDGELVEYGPIQAQVHPGLATLLTGPAGQKPQA
  binding: binds
